Screen size: about 340,000 compounds; about 6,200 (1.8%) were called active. This list was built around the results that the source calls inconclusive (neither active nor inactive); the mix of calls is not that of the screen. Calls follow the shape of the dose curve; as a rule, active = well fitted activation curve with a large enough effect; inconclusive = small, poorly fitted or top-dose-only effect; inactive = no such curve, though single readings can be large or run the other way. Where the call is inconclusive, the potency comes from a doubtful curve fit.
Test: A quantitative high throughput screen for small molecules that induce DNA re-replication in SW480 colon adenocarcinoma cells. Also: nearly all actives have a fitted effect of over 55% in size. As to re-replication activation: % of control where 0% means no effect.
Conditions: Hoechst DNA content imaging, 48 h; re-replication activation: at 46.1 µM (top of the series) unless noted
Outline: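 Quantitative HTS format with DMSO vehicle controls; 48 hr drug incubation at 37 C, then 40 min Hoechst staining and scanning imager measurement at 405 nm excitation.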
Potency is read from the fitted curve at half-maximal effect.

| Structure (SMILES) | Potency | re-replication activation |
| --- | --- | --- |
| C[C@@H](C(=O)NCc1ccc(S(C)(=O)=O)cc1)[C@H]1C[C@]1(C)[C@H](NC(=O)OCc1ccccc1)c1ccccc1 | inconclusive: 18.4 µM [activator, partial curve, poor fit] |  |
| O=C(C1CCN(S(=O)(=O)N2CCC3(CC2)OCCO3)CC1)N1CCc2ccccc2C1 |  | inactive: -7.43% |
| Cc1ccc(NC(=O)CN(C)C(=O)c2ccc3[nH]c4c(c3c2)CC(C)CC4)cc1 (centres undefined) | inconclusive: 0.0065 µM [activator, full curve, poor fit] |  |
| N#Cc1ccc(-c2ccc(Cl)cc2)nc1SCC(=O)c1cccc(Cl)c1 |  | inactive: -22.3% |
| C/C(=N\OCC(=O)OC(C)C(=O)Nc1ccc(C)c(S(=O)(=O)N2CCOCC2)c1)c1ccc2c(c1)OCO2 (centres undefined) |  | inactive: 14% |
| O=C1c2ccccc2-c2n[nH]c(=O)c3ccc(N4CCCCC4)c1c23 | inconclusive: 20.6 µM [activator, single point] |  |
| CCCNC(=S)NC1CCCC1 |  | inactive: -9.28% |
| Cc1ccc(S(=O)(=O)NCc2ccccc2)cc1C(=O)NCc1ccccn1 | inconclusive: 29.1 µM [activator, single point] |  |
| Cc1cccc(N2CC(O)=C(c3nc4ccccc4n3C)C2=N)c1 | inconclusive: 6.51 µM [activator, single point] |  |
| CCOC(=O)CSC1=NC(=O)/C(=C\c2ccc(Cl)cc2)S1 | inconclusive: 20.6 µM [activator, partial curve, poor fit] |  |
| c1ccc(N(c2ccccc2)c2nc(N3CCCC3)nc(-n3ccnc3)n2)cc1 | inconclusive: 16.4 µM [activator, single point] |  |
| CCOC(=O)C1=NN(C(=O)Cc2ccccc2)C(O)(c2ccc(Cl)cc2)C1 (centres undefined) | inconclusive: 23.1 µM [activator, single point] |  |
| Cc1cc(C)c(C#N)c(SCc2nnc(-c3ccccc3)o2)n1 | active: 8.2 µM |  |
| CCn1c(SCC(=O)Nc2ccccc2)nc2c1c(=O)n(C)c(=O)n2C |  | inactive: 0.203% |
| Cc1ccc(C)c(OCC(=O)Nc2ccc3c(c2)OCO3)c1C | inconclusive: 23.1 µM [activator, single point] |  |
| CC(OC(=O)C1=COCCO1)C(=O)NC(C)c1ccc(Cl)cc1Cl (centres undefined) | inconclusive: 0.0164 µM [activator, full curve, poor fit] |  |
| CCN(CC)c1ccc(/C=N/NC(=O)c2ccc(Br)o2)cc1 | inconclusive: 29.1 µM [activator, single point] |  |
| O=C(NCC(c1ccco1)N1CCN(c2ccccc2F)CC1)C(=O)NC1CCCCC1 (centres undefined) |  | inactive: -3.38% |
| CCOC(=O)N1C(=O)[C@@](c2ccc(Cl)cc2)(C(C)C)N1C(=O)OCC | inconclusive: 10.3 µM [activator, single point] |  |
| CCc1nnc(N/N=C/c2ccc(N3CCC(C)CC3)c([N+](=O)[O-])c2)n1N | inconclusive: 29.1 µM [activator, single point] |  |
| COc1ccc(C)cc1S(=O)(=O)Nc1ccc2c(c1)OCO2 |  | inactive: -1.15% |
| O=C(CCN1C(=O)/C(=C/c2ccccc2F)SC1=S)NC1C=CS(=O)(=O)C1 (centres undefined) | inconclusive: 18.4 µM [activator, single point] |  |

Structural class: those above containing a cyano group

| Structure (SMILES) | Potency | re-replication activation |
| --- | --- | --- |
| N#Cc1ccc(-c2ccc(Cl)cc2)nc1SCC(=O)c1cccc(Cl)c1 |  | inactive: -22.3% |
| Cc1cc(C)c(C#N)c(SCc2nnc(-c3ccccc3)o2)n1 | active: 8.2 µM |  |

Continuation.

| Structure (SMILES) | Potency | re-replication activation |
| --- | --- | --- |
| N#Cc1c(C(F)(F)F)cc(-c2cccs2)nc1SC(C(=O)O)c1ccccc1 (centres undefined) |  | inactive: -14.3% |
| COCCSc1nnc(NC(=O)CCS(=O)(=O)c2ccccc2)s1 | inconclusive: 29.1 µM [activator, single point] |  |
| COc1ccc(NC(=O)CN2CCN(c3ccccc3)CC2)cc1 | inconclusive: 16.4 µM [activator, single point] |  |
| Cc1cnc(C(=O)Nc2cccc3cccnc23)cn1 | inconclusive: 0.0082 µM [activator, full curve, poor fit] |  |
| CCCC(=O)NC(c1ccc(Cl)cc1Cl)c1ccc2cccnc2c1O (centres undefined) | active: 0.651 µM |  |
| COc1ccc(-c2cc(C(=O)N3CCN(c4ccccc4OC)CC3)no2)cc1 |  | inactive: 17.7% |
| COc1ccccc1Sc1nc(-c2ccccn2)ncc1OC | inconclusive: 29.1 µM [activator, single point] |  |
| COc1ccccc1NC(=O)c1cc(Cl)nnc1Cl | inconclusive: 23.1 µM [activator, single point] |  |
| CC(C)CCNC(=O)C1CCN(Cc2cccc(OCc3ccccc3)c2)CC1 | inconclusive: 29.1 µM [activator, single point] |  |
| COc1ccc(CCNc2ccc(C(CC(N)=O)NC(=O)c3ccc(Br)cc3)cc2[N+](=O)[O-])cc1 (centres undefined) | inconclusive: 32.6 µM [activator, partial curve, poor fit] |  |
| COc1ccc(CN(C)C(=O)c2ccc(COc3ccccc3)cc2)c(OC)c1 | inconclusive: 29.1 µM [activator, single point] |  |
| CCCc1cc(=O)[nH]c(SCC(=O)N(C)C2CCCCC2)n1 |  | inactive: 2.4% |
| Cc1sc2nc(SC(C)C)nc(N)c2c1C | inconclusive: 29.1 µM [activator, single point] |  |
| COc1ccc(C(=O)/C=C/C(=O)N(CC(=O)NC2CCCCC2)CC2CCCO2)c(O)c1 (centres undefined) |  | inactive: -21.5% |
| Cc1cccc(NC(=O)c2ccc(N(C)C3CCCCC3)c([N+](=O)[O-])c2)n1 |  | inactive: 1.25% |
| O=C(CSc1nnc(NC(=O)C2CC(=O)N(c3ccc(F)cc3)C2)s1)NCc1ccco1 (centres undefined) |  | inactive: 22.7% |
| COc1ccccc1NC(CC(=O)c1ccccc1)C(=O)OCC(=O)c1ccc(C)cc1 (centres undefined) | inconclusive: 23.1 µM [activator, partial curve, poor fit] |  |
| C=CCn1c(SCC(=O)N2CCOCC2)nc2sc(CC)cc2c1=O |  | inactive: -5.86% |
| CCOCCn1c(CN2CCC(Cc3ccccc3)CC2)nc2c1c(=O)n(C)c(=O)n2C |  | inactive: 5.79% |
| CC(=O)N(C(C)=O)n1c(/C=C/c2ccc([N+](=O)[O-])cc2)nc2ccccc2c1=O | inconclusive: 32.6 µM [activator, partial curve, poor fit] |  |
| Cc1cc(Cl)c2oc(C(=O)N3CCN(C(=O)c4ccco4)CC3)c(C)c2c1 |  | inactive: -44% |
| O=C(Nc1ccc(CN2CCOCC2)cc1)c1ccc(Br)o1 | inconclusive: 0.92 µM [activator, full curve, poor fit] |  |
